Results reported in patent publication US10336792B2, “Antimicrobial peptide dendrimers” (priority 2014, dated 2019).
Not every detail of the peptide structures is certain; ends, links or a residue may be inferred. Some compounds share one range, which may span the group rather than tell each member. Positions of bridges follow the written chain, without caps; N, C: chain ends. Non-standard residues stand in square brackets, D forms with d. Residues, ends and D or L forms follow the SMILES beside them. Groups on a side chain read outwards from the residue. Chains are numbered I, II in the order given. Dap = NC[C@H](N)C(=O)O

These molecules were tested on B. subtilis BR151 (assay: Preliminary resistant development assay (daily MIC for 15 days)). Settings: bacteria from 1/2 MIC well re-tested daily.
Assay type: cell-based, Bacillus subtilis
Experimental: MICs of compounds for B. subtilis BR151 were determined daily for 15 days using cells from the well in which the compound concentration was one-half the MIC value (½ MIC well). […] The re-suspension was then diluted to 5×10^5 cells/ml in LB Broth (OD600=0.1 then diluted 1:100 fold to get OD600=0.001) and used to again determine the MIC of the same compound to which those cells had previously been exposed. All MIC determinations were done in duplicate.
For an initial estimation of how fast resistances could arise with AMPDs the MIC was repeated for 15 days in a row and determined each day. After obtaining the MIC value in usual broth dilution assay the bacteria (B. subtilis) from the ½ MIC well were incubated for 2-5 hours and the dilution assay was repeated. This procedure was realized for 15 days and the MICs of each day compared. In case of an increase of the MIC, it is indicative for a resistance against the AMPDs.

SMILES	change of MIC over 15 days (resistance)
CC(C)C[C@H](NC(=O)[C@H](CCCNC(=N)N)NC(=O)[C@H](CNC(=O)[C@H](CC(C)C)NC(=O)[C@H](CCCNC(=N)N)NC(=O)[C@H](CNC(=O)[C@H](CC(C)C)NC(=O)[C@@H](N)CCCNC(=N)N)NC(=O)[C@H](CC(C)C)NC(=O)[C@@H](N)CCCNC(=N)N)NC(=O)[C@H](CC(C)C)NC(=O)[C@H](CCCNC(=N)N)NC(=O)[C@H](CNC(=O)[C@H](CC(C)C)NC(=O)[C@@H](N)CCCNC(=N)N)NC(=O)[C@H](CC(C)C)NC(=O)[C@@H](N)CCCNC(=N)N)C(N)=O [MSt-139, (RL)4(BRL)2(BRL)] (I: H-RL[Dap]([Leu-Arg])RL[Dap]RL-NH2 / II: H-RL[Dap]([Leu-Arg])RL; amide I:6-II:C)	loss in activity already after 5 to 10 days
CC(C)C[C@H](NC(=O)[C@H](CCCCN)NC(=O)[C@H](CCCCNC(=O)[C@H](CC(C)C)NC(=O)[C@H](CCCCN)NC(=O)[C@H](CCCCNC(=O)[C@H](CC(C)C)NC(=O)[C@H](CCCCN)NC(=O)[C@H](CCCCNC(=O)[C@H](Cc1ccc(O)cc1)NC(=O)[C@@H](N)CCCCN)NC(=O)[C@H](Cc1ccc(O)cc1)NC(=O)[C@@H](N)CCCCN)NC(=O)[C@H](CC(C)C)NC(=O)[C@H](CCCCN)NC(=O)[C@H](CCCCNC(=O)[C@H](Cc1ccc(O)cc1)NC(=O)[C@@H](N)CCCCN)NC(=O)[C@H](Cc1ccc(O)cc1)NC(=O)[C@@H](N)CCCCN)NC(=O)[C@H](CC(C)C)NC(=O)[C@H](CCCCN)NC(=O)[C@H](CCCCNC(=O)[C@H](CC(C)C)NC(=O)[C@H](CCCCN)NC(=O)[C@H](CCCCNC(=O)[C@H](Cc1ccc(O)cc1)NC(=O)[C@@H](N)CCCCN)NC(=O)[C@H](Cc1ccc(O)cc1)NC(=O)[C@@H](N)CCCCN)NC(=O)[C@H](CC(C)C)NC(=O)[C@H](CCCCN)NC(=O)[C@H](CCCCNC(=O)[C@H](Cc1ccc(O)cc1)NC(=O)[C@@H](N)CCCCN)NC(=O)[C@H](Cc1ccc(O)cc1)NC(=O)[C@@H](N)CCCCN)C(N)=O [MSt-114, (KY)8(KKL)4(KKL)2(KKL)] (I: H-KYK([Tyr-Lys])KLKKLKKL-NH2 / II: H-KYK([Tyr-Lys])KLKKL / III: H-KYK([Tyr-Lys])KL / IV: H-KYK([Tyr-Lys])KL; amide I:6-IV:C, I:9-II:C, II:6-III:C)	loss in activity already after 5 to 10 days
CC(C)C[C@@H](NC(=O)[C@@H](CCCCN)NC(=O)[C@@H](CCCCNC(=O)[C@@H](CC(C)C)NC(=O)[C@@H](CCCCN)NC(=O)[C@@H](CCCCNC(=O)[C@@H](CC(C)C)NC(=O)[C@@H](CCCCN)NC(=O)[C@@H](CCCCNC(=O)[C@@H](CC(C)C)NC(=O)[C@H](N)CCCCN)NC(=O)[C@@H](CC(C)C)NC(=O)[C@H](N)CCCCN)NC(=O)[C@@H](CC(C)C)NC(=O)[C@@H](CCCCN)NC(=O)[C@@H](CCCCNC(=O)[C@@H](CC(C)C)NC(=O)[C@H](N)CCCCN)NC(=O)[C@@H](CC(C)C)NC(=O)[C@H](N)CCCCN)NC(=O)[C@@H](CC(C)C)NC(=O)[C@@H](CCCCN)NC(=O)[C@@H](CCCCNC(=O)[C@@H](CC(C)C)NC(=O)[C@@H](CCCCN)NC(=O)[C@@H](CCCCNC(=O)[C@@H](CC(C)C)NC(=O)[C@H](N)CCCCN)NC(=O)[C@@H](CC(C)C)NC(=O)[C@H](N)CCCCN)NC(=O)[C@@H](CC(C)C)NC(=O)[C@@H](CCCCN)NC(=O)[C@@H](CCCCNC(=O)[C@@H](CC(C)C)NC(=O)[C@H](N)CCCCN)NC(=O)[C@@H](CC(C)C)NC(=O)[C@H](N)CCCCN)C(N)=O [MSt-181, (kl)8(kkl)4(kkl)2(kkl)] (I: H-[dK][dL][dK]([dL-dK])[dK][dL][dK][dK][dL][dK][dK][dL]-NH2 / II: H-[dK][dL][dK]([dL-dK])[dK][dL][dK][dK][dL] / III: H-[dK][dL][dK]([dL-dK])[dK][dL] / IV: H-[dK][dL][dK]([dL-dK])[dK][dL]; amide I:6-IV:C, I:9-II:C, II:6-III:C)	did not have a significant change of their MIC values over 15 days
CC(C)C[C@H](NC(=O)[C@H](CC(C)C)NC(=O)[C@H](CCCCNC(=O)[C@H](CC(C)C)NC(=O)[C@H](CC(C)C)NC(=O)[C@H](CCCCNC(=O)[C@H](CCCCN)NC(=O)[C@H](CCCCN)NC(=O)[C@H](CCCCNC(=O)[C@H](CCCCN)NC(=O)[C@@H](N)CCCCN)NC(=O)[C@H](CCCCN)NC(=O)[C@@H](N)CCCCN)NC(=O)[C@H](CCCCN)NC(=O)[C@H](CCCCN)NC(=O)[C@H](CCCCNC(=O)[C@H](CCCCN)NC(=O)[C@@H](N)CCCCN)NC(=O)[C@H](CCCCN)NC(=O)[C@@H](N)CCCCN)NC(=O)[C@H](CC(C)C)NC(=O)[C@H](CC(C)C)NC(=O)[C@H](CCCCNC(=O)[C@H](CCCCN)NC(=O)[C@H](CCCCN)NC(=O)[C@H](CCCCNC(=O)[C@H](CCCCN)NC(=O)[C@@H](N)CCCCN)NC(=O)[C@H](CCCCN)NC(=O)[C@@H](N)CCCCN)NC(=O)[C@H](CCCCN)NC(=O)[C@H](CCCCN)NC(=O)[C@H](CCCCNC(=O)[C@H](CCCCN)NC(=O)[C@@H](N)CCCCN)NC(=O)[C@H](CCCCN)NC(=O)[C@@H](N)CCCCN)C(N)=O [MSt-140, (KK)8(KKK)4(KLL)2(KLL)] (I: H-KKK([Lys-Lys])KKKLLKLL-NH2 / II: H-KKK([Lys-Lys])KKKLL / III: H-KKK([Lys-Lys])KK / IV: H-KKK([Lys-Lys])KK; amide I:6-IV:C, I:9-II:C, II:6-III:C)	loss in activity already after 5 to 10 days
